From PubChem BioAssay record AID504749 (NCATS, 2011).

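Malaria parasite (P. falciparum) lines kept in red blood cells; parasite DNA is measured by SYBR Green fluorescence after lysis, 72 h after compound addition. Each compound was titrated across a series from about 0.000037 to 29 µM. The number is the fitted AC50, the concentration giving a half-maximal change in signal; a lower value means higher potency, whether the curve shows a decrease or an increase. Calls follow the curve class and fit quality: every row here is inconclusive, covering signal-raising curves and weak, poorly fitted, partial or highest-dose-only inhibition curves.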

Values are in nM. All entries here are filed as inconclusive. These entries are mostly ones the record files as inconclusive; other results of the assay are not listed here. Potencies fitted to partial, single-point or poorly fitting curves are rough.

{"compound": "CCCCCCNC(=O)n1cc(F)c(=O)[nH]c1=O", "tested on / at": "P94_40", "fitted potency (nM)": "15848", "remark": "inhibitor, single point"}
{"compound": "CCCCCCNC(=O)n1cc(F)c(=O)[nH]c1=O", "tested on / at": "TAB109", "fitted potency (nM)": "12589", "remark": "inhibitor, single point"}
{"compound": "CCCCCCNC(=O)n1cc(F)c(=O)[nH]c1=O", "tested on / at": "TAB113", "fitted potency (nM)": "17782", "remark": "inhibitor, single point"}
{"compound": "CCCCCCNC(=O)n1cc(F)c(=O)[nH]c1=O", "tested on / at": "PC15", "fitted potency (nM)": "12589", "remark": "inhibitor, single point"}
{"compound": "CCCCCCNC(=O)n1cc(F)c(=O)[nH]c1=O", "tested on / at": "SC27B", "fitted potency (nM)": "10000", "remark": "inhibitor, single point"}
{"compound": "CCCCCCNC(=O)n1cc(F)c(=O)[nH]c1=O", "tested on / at": "PC26", "fitted potency (nM)": "19011", "remark": "inhibitor, single point"}
{"compound": "CCCCCCNC(=O)n1cc(F)c(=O)[nH]c1=O", "tested on / at": "AA1029", "fitted potency (nM)": "12589", "remark": "inhibitor, single point"}
{"compound": "CCCCCCNC(=O)n1cc(F)c(=O)[nH]c1=O", "tested on / at": "CP325", "fitted potency (nM)": "19011", "remark": "inhibitor, single point"}
{"compound": "CCCCCCNC(=O)n1cc(F)c(=O)[nH]c1=O", "tested on / at": "JCK", "fitted potency (nM)": "17782", "remark": "inhibitor, single point"}
{"compound": "CCCCCCNC(=O)n1cc(F)c(=O)[nH]c1=O", "tested on / at": "CP252", "fitted potency (nM)": "10000", "remark": "inhibitor, single point"}
{"compound": "CCCCCCNC(=O)n1cc(F)c(=O)[nH]c1=O", "tested on / at": "CP250", "fitted potency (nM)": "17782", "remark": "inhibitor, single point"}
{"compound": "CCCCCCNC(=O)n1cc(F)c(=O)[nH]c1=O", "tested on / at": "ATS189", "fitted potency (nM)": "10000", "remark": "inhibitor, single point"}
{"compound": "CCCCCCNC(=O)n1cc(F)c(=O)[nH]c1=O", "tested on / at": "ATS95", "fitted potency (nM)": "10000", "remark": "inhibitor, single point"}
{"compound": "CCCCCCNC(=O)n1cc(F)c(=O)[nH]c1=O", "tested on / at": "FAB9", "fitted potency (nM)": "10000", "remark": "inhibitor, single point"}
{"compound": "CCCCCCNC(=O)n1cc(F)c(=O)[nH]c1=O", "tested on / at": "CP192", "fitted potency (nM)": "15101", "remark": "inhibitor, partial curve, poor fit"}
{"compound": "CCCCCCNC(=O)n1cc(F)c(=O)[nH]c1=O", "tested on / at": "CP201", "fitted potency (nM)": "19011", "remark": "inhibitor, single point"}
{"compound": "CCCCCCNC(=O)n1cc(F)c(=O)[nH]c1=O", "tested on / at": "CP262", "fitted potency (nM)": "19011", "remark": "inhibitor, single point"}
{"compound": "CCCCCCNC(=O)n1cc(F)c(=O)[nH]c1=O", "tested on / at": "CP269", "fitted potency (nM)": "16944", "remark": "inhibitor, single point"}
{"compound": "CCCCCCNC(=O)n1cc(F)c(=O)[nH]c1=O", "tested on / at": "CP329", "fitted potency (nM)": "19011", "remark": "inhibitor, single point"}
{"compound": "CCCCCCNC(=O)n1cc(F)c(=O)[nH]c1=O", "tested on / at": "CP265", "fitted potency (nM)": "14125", "remark": "inhibitor, partial curve, poor fit"}
{"compound": "CCCCCCNC(=O)n1cc(F)c(=O)[nH]c1=O", "tested on / at": "CP266", "fitted potency (nM)": "19011", "remark": "inhibitor, partial curve, poor fit"}
{"compound": "CCCCCCNC(=O)n1cc(F)c(=O)[nH]c1=O", "tested on / at": "Dd2", "fitted potency (nM)": "10000", "remark": "inhibitor, single point"}
{"compound": "CCCCCCNC(=O)n1cc(F)c(=O)[nH]c1=O", "tested on / at": "CP247", "fitted potency (nM)": "10000", "remark": "inhibitor, single point"}
{"compound": "CCCCCCNC(=O)n1cc(F)c(=O)[nH]c1=O", "tested on / at": "CP217", "fitted potency (nM)": "11220", "remark": "inhibitor, single point"}
{"compound": "CCCCCCNC(=O)n1cc(F)c(=O)[nH]c1=O", "tested on / at": "CP238", "fitted potency (nM)": "10000", "remark": "inhibitor, single point"}
{"compound": "CCCCCCNC(=O)n1cc(F)c(=O)[nH]c1=O", "tested on / at": "CP203", "fitted potency (nM)": "19011", "remark": "inhibitor, single point"}
{"compound": "C=C1CC[C@H](O)C/C1=C/C=C1\\CCC[C@]2(C)[C@@H]([C@H](C)CC[C@@H](O)C(C)(C)O)CC[C@@H]12", "tested on / at": "CP217", "fitted potency (nM)": "10000", "remark": "inhibitor, single point"}
{"compound": "C=C1CC[C@H](O)C/C1=C/C=C1\\CCC[C@]2(C)[C@@H]([C@H](C)CC[C@@H](O)C(C)(C)O)CC[C@@H]12", "tested on / at": "CP297", "fitted potency (nM)": "10690", "remark": "inhibitor, partial curve"}

The first 2 entries again:

{"compound": "CCCCCCNC(=O)n1cc(F)c(=O)[nH]c1=O", "tested on / at": "P94_40", "fitted potency (nM)": "15848", "remark": "inhibitor, single point"}
{"compound": "CCCCCCNC(=O)n1cc(F)c(=O)[nH]c1=O", "tested on / at": "TAB109", "fitted potency (nM)": "12589", "remark": "inhibitor, single point"}